For this data set, the system named is thyroid hormone (T3) receptor, GC2 nuclear extract (Rattus norvegicus). Kind of data set: footprint. Conditions: DNase I protection of antisense strand -179 to -164 with crude GC2 nuclear extract; protein in an extract.

The record followed here is US5597705.

For at least one entry, the source does not settle the construct or the ends of the probe. Where cells or extracts were used, other partners may take part.

As for “CAGGGACGTGACCGCA (double strand) [rat GH T3 receptor footprint -179 to -164]”, the binding result is “binds”.
